Measured values published in PubChem BioAssay AID445 (National Center for Advancing Translational Sciences (NCATS), 2006).
This is one part of the list. Shown are side measurements of this screen, not its main read-out; they come without a call. Compounds called inactive in the main read-out are mostly missing here. Potencies come from curve fits of mixed quality, noted in brackets.

Assay: IkB Signaling
Conditions: ABC-DLBCL IkBa-CBG/CBR dual luciferase ratio (green luciferase fused to IkBa over red control in OCI-Ly3 lymphoma cells), 4 h
Outline: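 Curves were fitted separately to fusion (green), unfused (red) and ratio luminescence, then classed by r2, magnitude and activity. Cells: OCI-Ly3, 4 h compound plus doxycycline at 37C; 10 uM MG-132 defined full response.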

[1] = measured here: control luc red channel unless noted

In the case of `CCOC(=O)c1ccc2c(c1)N(Cc1ccc(F)cc1Cl)C(=O)c1ccccc1S2(=O)=O`, the AC50 [1] is reported as 2.51 µM [rising, single point].
For `COc1cc(OC)c(NC(=O)Nc2cccc(OCc3cc(=O)n4ccccc4n3)c2)cc1Cl`, the AC50 [1] was 0.251 µM [falling, full curve].
For `CCn1c(C)c(C)c2cc(C(=O)NCc3ccc(F)cc3)ccc21`, the AC50 [1] was 39.8 µM [falling, single point].
In the case of `O=C(C1CCCN(S(=O)(=O)c2ccc(Br)s2)C1)N1CCN(c2ccccc2F)CC1` (centres undefined), the AC50 [1] is reported as 15.8 µM [falling, partial curve].
In the case of `Fc1ccc(Nc2ncnc3onc(-c4ccc(Cl)cc4)c23)cc1Cl`, the AC50 [1] is reported as 39.8 µM [falling, single point].
For `COc1ccc(C)cc1NC(=O)NC(C)c1c(-n2cccc2)sc(C)c1C` (centres undefined), the AC50 [1] was 0.126 µM [falling, full curve, poor fit].
For `CCOC(=O)c1c(C)[nH]c(CCC(=O)NC(C)c2ccccc2)c1C` (centres undefined), the AC50 [1] was 0.1 µM [falling, full curve, poor fit].
For `CCN(CC)CCCNc1sc(S(=O)(=O)c2ccccc2)nc1S(=O)(=O)c1ccc(Cl)cc1`, the AC50 [1] was 25.1 µM [falling, single point].
For `COC(=O)C(NC(=O)CCc1c(C)nc2c(-c3ccccc3)c(C)nn2c1C)C(C)C` (centres undefined), the AC50 [1] was 15.8 µM [falling, partial curve].
In the case of `CCCC(=O)Nc1nnc(S(=O)(=O)N2CCCCCC2)s1`, the AC50 [1] is reported as 3.16 µM [rising, single point].
For `CC(C)Cc1ccc(S(=O)(=O)N2CCN(Cc3noc(CCC(=O)N4CCCCC4)n3)CC2)cc1`, the AC50 [1] was 20 µM [falling, single point].
In the case of `COc1ccc(C2C(C(=O)Nc3ccccc3)=C(C)Nc3nc(SCC(=O)c4ccc(C)cc4)nn32)cc1` (centres undefined), the AC50 [1] is reported as 6.31 µM [rising, single point].
With `Cc1nc2cc(-c3cccc(F)c3)nn2c(C)c1CCC(=O)N1CCN(c2ccccn2)CC1` the AC50 [1] was 0.794 µM [falling, partial curve].
For `CC1=C(c2ccc(F)cc2)S(=O)(=O)N=C1N1CCC(C(=O)NCCc2ccccc2C)CC1`, the AC50 [1] was 100 nM [rising, full curve, poor fit] [measured here: IkB-luc green channel].
In the case of `CCC(C(=O)NC1CCCC1)N(Cc1ccco1)C(=O)Cn1nnc(-c2ccc(C)cc2)n1` (centres undefined), the AC50 [1] is reported as 158 nM [rising, full curve, poor fit] [measured here: IkB-luc green channel].
With `Cc1ccc(CNC(=O)c2ccc(CSCc3cccc(C)c3)o2)cc1` the AC50 [1] was 25.1 µM [falling, single point].
With `Cc1ccc(CCNS(=O)(=O)c2c(C)nc3sc(C)c(C)n3c2=O)cc1` the AC50 [1] was 39.8 µM [falling, single point].
For `Cc1nc2ccn(Cc3cccs3)c(=O)c2cc1C(=O)N1CCN(c2ccccc2F)CC1`, the AC50 [1] was 25.1 µM [falling, partial curve].
In the case of `O=C1C(=O)N(C2CCN(C(=O)c3ccccc3Cl)CC2)CCN1Cc1ccc(F)cc1`, the AC50 [1] is reported as 2.51 µM [falling, full curve, poor fit].
With `CC1CCN(S(=O)(=O)c2ccc3c(c2)N(CC(=O)NCCc2ccccc2)C(=O)CO3)CC1` the AC50 [1] was 39.8 µM [falling, single point].
In the case of `COc1cccc(NC(=O)c2ccc3c(c2)CCN3S(C)(=O)=O)c1`, the AC50 [1] is reported as 20 µM [falling, partial curve].
In the case of `CCC(=O)N1CCc2cc(Br)cc(S(=O)(=O)N3CCN(c4ccccc4OC)CC3)c21`, the AC50 [1] is reported as 0.0316 µM [falling, full curve, poor fit].
With `Cc1ccc(CNC(=O)c2nc(SCc3ccccc3C)ncc2Cl)cc1` the AC50 [1] was 10 µM [falling, partial curve, poor fit].
In the case of `COCCNc1oc(/C=C/c2ccc(F)cc2)nc1C#N`, the AC50 [1] is reported as 0.251 µM [rising, partial curve].
For `COc1ccc(Nc2ncnc3c2cnn3-c2ccc(C)cc2)cc1Cl`, the AC50 [1] was 3.98 µM [falling, full curve].
With `CCC(=O)N1CCc2cc(Br)cc(S(=O)(=O)CCC(=O)NCc3cccc(OC)c3)c21` the AC50 [1] was 6.31 µM [falling, partial curve].
With `CC1C(=O)N2CCCc3cc(S(=O)(=O)N4CCC(C(N)=O)CC4)cc1c32` (centres undefined) the AC50 (measured here: IkB-luc green channel) was 3.98 µM [rising, single point] and the AC50 (measured here: control luc red channel) was 6.31 µM [rising, single point].
With `COc1ccccc1Nc1nn2c(=O)c3ccc(C(=O)NCCC4=CCCCC4)cc3nc2s1` the AC50 [1] was 31.6 µM [falling, partial curve].
With `Cc1onc(-c2ccccc2)c1C(=O)OCC(=O)c1ccccc1` the AC50 [1] was 31.6 µM [falling, single point].
In the case of `COc1cccc(CNC(=O)c2cnc(N3CCCCC3)c3ccccc23)c1`, the AC50 [1] is reported as 39.8 µM [falling, single point].
For `COc1ccc(-c2onc(C)c2C)cc1S(=O)(=O)NCC1CCN(Cc2cc(C)ccc2C)CC1`, the AC50 [1] was 15.8 µM [falling, partial curve].
For `COC(=O)c1ccccc1NC(=O)c1ccc2nc(CCc3ccccc3)oc2c1`, the AC50 [1] was 7.94 µM [rising, partial curve, poor fit].
For `O=C(CSCc1cnn(-c2ccccc2)c1-n1cccc1)NCc1cccs1`, the AC50 [1] was 15.8 µM [falling, partial curve].
In the case of `COc1cccc(-c2noc(COc3ccccc3Cl)n2)c1`, the AC50 [1] is reported as 6.31 µM [rising, single point].
With `c1ccc(C(Cc2nc(-c3ccccn3)no2)c2ccccc2)cc1` the AC50 [1] was 2 µM [falling, full curve].
For `Cc1ccc(-n2c(=O)c3c(cnn3C)n(CC(=O)Nc3ccccc3C)c2=O)cc1`, the AC50 [1] was 1.26 µM [falling, partial curve].
With `COc1ccc2nc(C)cc(Nc3ccc(Cl)c(Cl)c3)c2c1` the AC50 [1] was 15.8 µM [falling, partial curve].
In the case of `O=C(Cn1c(=O)oc2cc(S(=O)(=O)N3CCCCC3)ccc21)NCc1ccc(Cl)cc1`, the AC50 [1] is reported as 15.8 µM [falling, partial curve].
